{"source": "PubChem BioAssay AID686937 (Drosophila RNAi Screening Center, 2013)", "purpose": "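Genes in the fly needed for secretion of protein constitutively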 (primary screen)", "cells": "Drosophila S2 cells expressing secreted horseradish peroxidase", "knock-down reagent": "long dsRNA against Drosophila genes", "duration": "about 5.5 days (5 days dsRNA, then 12 h reporter induction)", "challenge": "reporter expression induced after 5 days of dsRNA, read 12 h later; inducer not stated", "read-out": "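Chemiluminescent measurement of peroxidase in the medium 12 h after reporter induction, following 5 days of dsRNA, given as a z-score per plate; higher means more secretion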", "scale": "z-score: higher = more reporter secreted into medium", "note": "The deposit covers about 23,000 reagents; below is a random part of those with a known target gene and a result. 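Reduced-secretion tags in replicate 1 do not always agree with the z-scores; no criterion for assigning the tags was given.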 Not all columns of the deposit are shown. Not stated in the record: the amount of reagent."}
{"Gene": "CG43339", "amplicon": "DRSC02466", "z-score, replicate 1": 0.39}
{"Gene": "CG9932", "amplicon": "DRSC03275", "z-score, replicate 1": 0.56}
{"Gene": "Jon65Aiii", "amplicon": "DRSC10649", "z-score, replicate 1": 0.36}
{"Gene": "LBR", "amplicon": "DRSC04298", "z-score, replicate 1": 0.17}
{"Gene": "CG15741", "amplicon": "DRSC19707", "z-score, replicate 1": 0.22}
{"Gene": "Klf15", "amplicon": "DRSC17742", "z-score, replicate 1": 0.37}
{"Gene": "Sil1", "amplicon": "DRSC14242", "z-score, replicate 1": 0.3}
{"Gene": "CG13531", "amplicon": "DRSC04173", "z-score, replicate 1": 0.28}
{"Gene": "beta-Spec", "amplicon": "DRSC20311", "z-score, replicate 1": 0.26}
{"Gene": "CG3651", "amplicon": "DRSC03730", "z-score, replicate 1": -0.06}
{"Gene": "CG7518", "amplicon": "DRSC16253", "z-score, replicate 1": 0.46}
{"Gene": "Gbeta13F", "amplicon": "DRSC20247", "z-score, replicate 1": 0.37}
{"Gene": "FMRFa", "amplicon": "DRSC07428", "z-score, replicate 1": 0.17}
{"Gene": "AGO1", "amplicon": "DRSC05912", "z-score, replicate 1": -1.52}
{"Gene": "CG32812", "amplicon": "DRSC18478", "z-score, replicate 1": -0.9}
{"Gene": "TbCMF46", "amplicon": "DRSC02221", "z-score, replicate 1": 0.08}
{"Gene": "CG33919", "amplicon": "DRSC04940", "z-score, replicate 1": 0.32}
{"Gene": "CG5023", "amplicon": "DRSC15697", "z-score, replicate 1": 0.22}
{"Gene": "Obp18a", "amplicon": "DRSC19736", "z-score, replicate 1": 0.2}

The list goes on (5 carried over from the part before).
{"Gene": "CG32812", "amplicon": "DRSC18478", "z-score, replicate 1": -0.9}
{"Gene": "TbCMF46", "amplicon": "DRSC02221", "z-score, replicate 1": 0.08}
{"Gene": "CG33919", "amplicon": "DRSC04940", "z-score, replicate 1": 0.32}
{"Gene": "CG5023", "amplicon": "DRSC15697", "z-score, replicate 1": 0.22}
{"Gene": "Obp18a", "amplicon": "DRSC19736", "z-score, replicate 1": 0.2}
{"Gene": "Ogdh", "amplicon": "DRSC09854", "z-score, replicate 1": 0.49}
{"Gene": "Ogdh", "amplicon": "DRSC09855", "z-score, replicate 1": -0.37}
{"Gene": "Cont", "amplicon": "DRSC12149", "z-score, replicate 1": 0.26}
{"Gene": "w", "amplicon": "DRSC17233", "z-score, replicate 1": 0.37}
{"Gene": "w", "amplicon": "DRSC18850", "z-score, replicate 1": 0.14}
{"Gene": "CG8051", "amplicon": "DRSC20077", "z-score, replicate 1": 0.35}
{"Gene": "Cep89", "amplicon": "DRSC07110", "z-score, replicate 1": 0.32}
{"Gene": "lncRNA:CR42646", "amplicon": "DRSC04759", "z-score, replicate 1": 0.9}
{"Gene": "CG13310", "amplicon": "DRSC09981", "z-score, replicate 1": 0.29}
{"Gene": "Ugt37C1", "amplicon": "DRSC07416", "z-score, replicate 1": -5.42}
{"Gene": "Parg", "amplicon": "DRSC18696", "z-score, replicate 1": 0.12}
{"Gene": "Arms", "amplicon": "DRSC03856", "z-score, replicate 1": 0.44}
{"Gene": "Arms", "amplicon": "DRSC03857", "z-score, replicate 1": 0.04}
{"Gene": "Arms", "amplicon": "DRSC04052", "z-score, replicate 1": 0.51}
{"Gene": "Arms", "amplicon": "DRSC04256", "z-score, replicate 1": -3.54}
{"Gene": "CG5050", "amplicon": "DRSC02807", "z-score, replicate 1": 0.17}
{"Gene": "Mal-A6", "amplicon": "DRSC07233", "z-score, replicate 1": 0.23}
{"Gene": "prtp", "amplicon": "DRSC19804", "z-score, replicate 1": 0.34}
{"Gene": "prtp", "amplicon": "DRSC22494", "z-score, replicate 1": 0.21}
{"Gene": "CG5382", "amplicon": "DRSC15786", "z-score, replicate 1": -0.05}
{"Gene": "CG17027", "amplicon": "DRSC10238", "z-score, replicate 1": 0.41}
